Measurements published in paper PMC8037196.
Results are given in words; binding and its absence hold for the method and conditions named. In cells and extracts the contact can be indirect. Some results given as binding are weak or reduced against the parent protein; the word gives no strength.

Amino acid sequences for entries named in this document (tags omitted).
UniProt Q8TD43: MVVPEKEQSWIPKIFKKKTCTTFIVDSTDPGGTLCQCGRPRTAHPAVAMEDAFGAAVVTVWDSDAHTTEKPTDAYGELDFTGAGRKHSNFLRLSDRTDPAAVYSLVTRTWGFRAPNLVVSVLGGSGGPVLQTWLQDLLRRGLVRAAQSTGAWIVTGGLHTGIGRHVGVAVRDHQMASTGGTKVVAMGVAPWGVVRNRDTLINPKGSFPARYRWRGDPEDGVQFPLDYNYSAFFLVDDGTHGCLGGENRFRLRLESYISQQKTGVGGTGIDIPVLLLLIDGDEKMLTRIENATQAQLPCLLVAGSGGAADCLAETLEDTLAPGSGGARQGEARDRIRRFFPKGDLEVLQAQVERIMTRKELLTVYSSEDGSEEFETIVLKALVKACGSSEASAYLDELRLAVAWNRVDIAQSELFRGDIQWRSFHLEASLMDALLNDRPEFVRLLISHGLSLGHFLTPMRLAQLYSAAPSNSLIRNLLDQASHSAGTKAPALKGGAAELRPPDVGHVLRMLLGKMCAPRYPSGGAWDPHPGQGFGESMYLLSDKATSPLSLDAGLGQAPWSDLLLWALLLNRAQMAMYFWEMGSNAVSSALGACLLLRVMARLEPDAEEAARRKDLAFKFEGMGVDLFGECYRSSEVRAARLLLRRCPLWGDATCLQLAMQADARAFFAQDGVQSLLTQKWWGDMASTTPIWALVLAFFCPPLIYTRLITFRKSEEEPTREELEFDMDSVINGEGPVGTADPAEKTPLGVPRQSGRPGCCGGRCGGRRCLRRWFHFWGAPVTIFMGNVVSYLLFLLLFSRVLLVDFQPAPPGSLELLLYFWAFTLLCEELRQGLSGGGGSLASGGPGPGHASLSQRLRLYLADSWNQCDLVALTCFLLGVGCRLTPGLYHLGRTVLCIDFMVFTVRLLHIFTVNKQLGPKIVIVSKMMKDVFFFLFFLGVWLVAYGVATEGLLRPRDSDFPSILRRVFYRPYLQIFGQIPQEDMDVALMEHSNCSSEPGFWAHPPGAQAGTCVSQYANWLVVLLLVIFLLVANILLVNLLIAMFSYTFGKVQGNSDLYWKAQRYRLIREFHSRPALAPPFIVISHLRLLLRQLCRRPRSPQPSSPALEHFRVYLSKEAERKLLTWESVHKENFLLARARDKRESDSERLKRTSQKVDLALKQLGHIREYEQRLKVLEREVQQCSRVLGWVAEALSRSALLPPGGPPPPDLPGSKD

B1: TRPM5 (protein, UniProt Q9NZQ8 1-1165)
chain: MQDVQGPRPGSPGDAEDRRELGLHRGEVNFGGSGKKRGKFVRVPSGVAPSVLFDLLLAEWHLPAPNLVVSLVGEEQPFAMKSWLRDVLRKGLVKAAQSTGAWILTSALRVGLARHVGQAVRDHSLASTSTKVRVVAVGMASLGRVLHRRILEEAQEDFPVHYPEDDGGSQGPLCSLDSNLSHFILVEPGPPGKGDGLTELRLRLEKHISEQRAGYGGTGSIEIPVLCLLVNGDPNTLERISRAVEQAAPWLILVGSGGIADVLAALVNQPHLLVPKVAEKQFKEKFPSKHFSWEDIVRWTKLLQNITSHQHLLTVYDFEQEGSEELDTVILKALVKACKSHSQEPQDYLDELKLAVAWDRVDIAKSEIFNGDVEWKSCDLEEVMVDALVSNKPEFVRLFVDNGADVADFLTYGRLQELYRSVSRKSLLFDLLQRKQEEARLTLAGLGTQQAREPPAGPPAFSLHEVSRVLKDFLQDACRGFYQDGRPGDRRRAEKGPAKRPTGQKWLLDLNQKSENPWRDLFLWAVLQNRHEMATYFWAMGQEGVAAALAACKILKEMSHLETEAEAARATREAKYERLALDLFSECYSNSEARAFALLVRRNRCWSKTTCLHLATEADAKAFFAHDGVQAFLTRIWWGDMAAGTPILRLLGAFLCPALVYTNLITFSEEAPLRTGLEDLQDLDSLDTEKSPLYGLQSRVEELVEAPRAQGDRGPRAVFLLTRWRKFWGAPVTVFLGNVVMYFAFLFLFTYVLLVDFRPPPQGPSGPEVTLYFWVFTLVLEEIRQGFFTDEDTHLVKKFTLYVGDNWNKCDMVAIFLFIVGVTCRMLPSAFEAGRTVLAMDFMVFTLRLIHIFAIHKQLGPKIIVVERMMKDVFFFLFFLSVWLVAYGVTTQALLHPHDGRLEWIFRRVLYRPYLQIFGQIPLDEIDEARVNCSTHPLLLEDSPSCPSLYANWLVILLLVTFLLVTNVLLMNLLIAMFSYTFQVVQGNADMFWKFQRYNLIVEYHERPALAPPFILLSHLSLTLRRVFKKEAEHKREHLERDLPDPLDQKVVTWETVQKENFLSKMEKRRRDSEGEVLRKTAHRVDFIAKYLGGLREQEKRIKCLESQINYCSVLVSSVADVLAQGGGPRSSQHCGEGSQLVAADHRGGLDGWEQPGAGQPPSDT

Molecular target: FLAG-tagged human-Nav1.5 (human) (UniProt Q14524)
Test: co-IP; HEK-293 cells co-transfected, lysed 48 h after transfection; 2 mg total protein incubated with anti-FLAG Dynabeads for 1 h at 4 °C, washed with lysis buffer, eluted into sample buffer, Western blot

Row | Molecule | binding
1 | human-TRPM4 (from UniProt Q8TD43 1-1214) | binds
2 | B1 | no binding
